The other results are listed elsewhere or left out. The main result of the screen is listed elsewhere. These columns were measured beside it and carry no call. Compounds called inactive in the main read-out are mostly missing here. Words in brackets tell the shape of the fitted curve; partial curves, single points and poor fits give uncertain potencies.
Assay: qHTS Assay for Lipid Storage Modulators in Drosophila S3 Cells;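 as to cell number change: cells counted by Cell Tracker Red CMTPX staining in the red channel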
Details: BODIPY lipid droplet fluorescence, 18-24 h; for cell number change: measured here: cell count max response, cells fed with added oleic acid
In short: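 Drosophila S3 cells got compounds at several concentrations plus oleic acid (400 uM solution). Laser-scanning cytometry with 488 nm excitation read lipid droplets at 500-530 nm and cells at 575-640 nm. Percent activity was relative to 20 uM Triacsin C.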

[1] = measured here: lipid fluorescence (Fed channel) AC50, cells fed with added oleic acid
[2] = measured here: cell number channel AC50, cells fed with added oleic acid

SMILES	cell number change	AC50 [1]	AC50 [2]
CCn1c(=S)sc2c(=O)n(CC(=O)Nc3cccc(OC)c3)c(C)nc21	-2.75%	0.82 µM [falling, single point]	–
CCOc1ccc(-c2nnc(-c3ccco3)o2)cc1	88.9%	–	18.4 µM [rising, partial curve, poor fit]
NC(=O)c1ccsc1NC(=O)CN1C(=O)NC2(CCCCC2)C1=O	37.5%	29.1 µM [rising, single point]	29.1 µM [rising, single point]
Cc1nc(NC(=O)c2ccc(Br)s2)sc1C(=O)N(C)C	67.3%	16.4 µM [rising, partial curve]	20.6 µM [rising, partial curve, poor fit]
Nc1ccc(-c2cn3cccnc3n2)cc1	-16.3%	0.708 µM [falling, full curve, poor fit]	0.631 µM [falling, single point]
COc1ccc(-c2cc(C)no2)cc1S(=O)(=O)N(C)Cc1ccco1	–	0.058 µM [rising, full curve, poor fit]	–
COc1ccc(NC(=O)Nc2nccs2)cc1	-14.8%	2.06 µM [rising, partial curve]	–
Cc1ccc(NNC(=O)c2snnc2C)cc1Cl	–	2.31 µM [rising, single point]	–
CNC(=O)c1nc(C)n(-c2cc(Cl)ccc2Cl)n1	2.97%	–	–
CCOc1cc(CNc2ccc(N3CCCC3)cc2)cc(Cl)c1OC	17.4%	3.66 µM [rising, single point]	–
O=C(O)c1ccc(-c2ccccc2Cl)o1	-30.8%	0.651 µM [falling, single point]	0.651 µM [falling, full curve, poor fit]
CS(=O)(=O)N(CC(=O)N/N=C/c1cccs1)c1cccc(Cl)c1Cl	-20.2%	–	0.00461 µM [falling, full curve, poor fit]
COc1ccc(C(=O)/C(=C\c2sccc2C)c2nc3ccccc3o2)cc1	28.4%	14.6 µM [rising, partial curve]	–
O=C(COc1ccc(Cl)cc1Cl)N1CCN(c2ccccn2)CC1	32.5%	–	–
COc1ccc(Cl)cc1CN1C(=O)NC2(CCCCCC2)C1=O	6.76%	0.58 µM [falling, single point]	–
CSc1ccccc1C(=O)NCc1ccccc1C	-38.2%	20.6 µM [falling, partial curve, poor fit]	23.1 µM [falling, partial curve]
COC(=O)Cn1c(N2CCCC2)nc2c1c(=O)n(C)c(=O)n2C	4.05%	4.11 µM [rising, single point]	–
O=C1/C(=C\c2ccco2)SC(=S)N1c1ccccc1	-4.61%	0.00517 µM [falling, full curve, poor fit]	–
Cc1ccc(S(=O)(=O)N(C)C)cc1-n1c(SCC(=O)Nc2ccc(F)c(F)c2F)nc2ccccc2c1=O	41.5%	0.326 µM [falling, partial curve, poor fit]	29.1 µM [rising, single point]
CC1CCc2c(sc(NC(=O)C(=O)NCc3ccco3)c2C#N)C1 (stereo unspecified)	–	3.66 µM [rising, single point]	2.59 µM [rising, partial curve]

SMILES	cell number change	AC50 [1]	AC50 [2]
N#Cc1ccccc1COC(=O)CCC(=O)c1cccs1	13%	0.00461 µM [rising, full curve, poor fit]	–
CC(C)(C)NC(=O)C1CC(=O)OC12CCOC(C)(C)C2 (stereo unspecified)	-5.24%	–	3.26 µM [falling, partial curve]
COc1ccc(Br)cc1/C=C/C(=O)NC(=S)Nc1ccc(CN2CCOCC2)cc1	24.2%	6.51 µM [rising, partial curve]	–
CCCCCCn1c(SCCC)nc2c1c(=O)[nH]c(=O)n2C	-30.3%	–	5.17 µM [falling, full curve, poor fit]
N#Cc1sc(C(N)=O)c(-c2ccccc2)c1-c1ccccc1	27.9%	–	–
CS(=O)(=O)c1ccc(C(=O)OCC(=O)NC23CC4CC(CC(C4)C2)C3)cc1[N+](=O)[O-]	-11.6%	29.1 µM [falling, single point]	–
CCOC(=O)/C(C#N)=C/c1cccn1-c1ccc(Cl)cc1	3.31%	0.0461 µM [rising, full curve, poor fit]	–
CCOc1ccc(CN(C)C(=O)c2ccc(=O)[nH]c2)cc1	3.63%	7.31 µM [falling, partial curve, poor fit]	–
CC(c1nnc(SCC(=O)N(C)C2CCS(=O)(=O)C2)n1-c1ccccc1)N(C)C (stereo unspecified)	-2.52%	2.91 µM [rising, full curve]	–
Cc1nc2ccccc2c(=O)n1/N=C/c1ccc(N(C)C)cc1	-21.4%	0.517 µM [rising, full curve]	–
C=CCNc1nc(C(=O)OCC(=O)c2ccc(OC)cc2OC)cs1	–	–	0.103 µM [rising, full curve, poor fit]
O=C(NCCCN1CCOCC1)C(=O)N/N=C/c1ccccc1Cl	-1.17%	–	–
N#Cc1ccc(CC(C(=O)O)N2Cc3ccccc3C2=O)cc1 (stereo unspecified)	-21.5%	9.2 µM [falling, partial curve, poor fit]	–
COc1ccc(-c2cc(C(=O)N3CCCCC3)c3ccccc3n2)cc1OC	5.6%	0.013 µM [rising, full curve, poor fit]	–
COc1ccc(C(CC(=O)NCc2ccccc2)Sc2n[nH]c(-c3ccccc3)n2)cc1 (stereo unspecified)	22%	6.51 µM [falling, partial curve]	–
COC(=O)c1c(C)cc(OC(C)=O)c(C)c1OC(C)=O	1.23%	–	7.31 µM [falling, single point]
O=c1oc2ccc3ccccc3c2cc1-c1nnc(-c2ccccc2)o1	–	–	5.8 µM [rising, single point]
Cc1nn(-c2ccccc2)c(Cl)c1/C=N/Nc1nc2ccccc2[nH]1	-53.3%	4.61 µM [falling, full curve]	8.2 µM [falling, partial curve]
Cc1ccc2cc(C3C(C#N)=C(N)Oc4c3ccc3cccnc43)c(=O)[nH]c2c1 (stereo unspecified)	-23.6%	29.1 µM [falling, single point]	–
CCc1ccccc1NC(=O)c1cc(C2CC2)on1	-32.3%	–	–

SMILES	cell number change	AC50 [1]	AC50 [2]
COc1cc2cc(C)c(SCC(=O)N3CCOCC3)nc2cc1OC	-1.61%	–	–
O=C(O)c1ccc(C(=O)c2ccc3c(c2)C(=O)N(Cc2ccco2)C3=O)cc1	-22.8%	3.26 µM [falling, full curve]	1.46 µM [falling, full curve, poor fit]
CC(OC(=O)c1cc(S(=O)(=O)N(C)c2ccccc2)ccc1Cl)C(=O)Nc1ccc2c(c1)OCCO2 (stereo unspecified)	10.8%	6.51 µM [rising, single point]	–
O=C(CCN1C(=O)/C(=C/c2ccc3c(c2)OCO3)SC1=S)Nc1ccccc1	-23.7%	0.92 µM [rising, full curve, poor fit]	–
CCN(C(=O)COC(=O)c1cc([N+](=O)[O-])ccc1N1CCOCC1)C1CCCCC1	–	–	0.517 µM [rising, partial curve]
COc1ccccc1NC(=O)Nc1cnccn1	22%	–	0.103 µM [rising, full curve, poor fit]
O=C(COc1ccccc1)Nc1ccc(NC(=O)c2ccco2)cc1	10.6%	0.0517 µM [rising, full curve, poor fit]	–
COc1ccc(C(=O)CCC(=O)NCCc2c[nH]c3ccccc23)cc1	-14%	3.26 µM [falling, single point]	–
COc1ccc(C(=O)CN2C(=O)c3ccccc3S2(=O)=O)cc1	10.9%	13 µM [rising, partial curve, poor fit]	–
CC(=O)c1cccc(NC(=O)CN(c2ccccc2)S(C)(=O)=O)c1	11.7%	2.31 µM [rising, partial curve]	–
COc1ccc(OC)c(C2C3CN(C(C)C)CC=C3C(C#N)=C(N)C2(C#N)C#N)c1 (stereo unspecified)	30.8%	–	25.9 µM [rising, partial curve, poor fit]
O=C(Nc1cc(SCCO)cc([N+](=O)[O-])c1)c1ccco1	27.3%	11.6 µM [rising, partial curve]	–
O=C1NC(c2ccco2)Nc2sc3c(c21)CCN(Cc1ccccc1)C3 (stereo unspecified)	89.4%	–	23.1 µM [rising, single point]
O=C(CSc1nc(-c2ccccc2)c(-c2ccccc2)o1)Nc1nncs1	41.8%	7.31 µM [rising, partial curve]	3.66 µM [rising, full curve]
Cc1cc(C(=O)NC2CCCc3c2cnn3-c2ccc(C)c(C)c2)n(C)n1 (stereo unspecified)	-17.3%	0.92 µM [falling, full curve]	0.58 µM [falling, partial curve, poor fit]
Cc1[nH]c2ccccc2c1C(c1ccncc1)N1CCC(C)CC1 (stereo unspecified)	-2.85%	–	–
COc1ccc(CC(=O)Nc2ccccc2N2CCOCC2)cc1OC	23.3%	–	–
Cc1ccc(NC(=O)c2cc(C)nc3ccccc23)c(Br)c1	-8.76%	6.51 µM [rising, single point]	–
O=C(NCCC1CCCC1)C1CCC(=O)N(CCCN2CCCC2=O)C1 (stereo unspecified)	–	6.51 µM [rising, single point]	–
Nc1nc(-c2ccccn2)nc(N)c1Cc1c(F)cccc1Cl	-63.4%	–	29.1 µM [falling, single point]

Single records, as listed above. Order of values: cell number change	AC50 [1]	AC50 [2]
`CCN(C(=O)COC(=O)c1cc([N+](=O)[O-])ccc1N1CCOCC1)C1CCCCC1` is listed as –	–	0.517 µM [rising, partial curve]
`COc1ccc(C(=O)CN2C(=O)c3ccccc3S2(=O)=O)cc1` is listed as 10.9%	13 µM [rising, partial curve, poor fit]	–
`COc1ccc(OC)c(C2C3CN(C(C)C)CC=C3C(C#N)=C(N)C2(C#N)C#N)c1` (stereo unspecified) is listed as 30.8%	–	25.9 µM [rising, partial curve, poor fit]
`O=C(Nc1cc(SCCO)cc([N+](=O)[O-])c1)c1ccco1` is listed as 27.3%	11.6 µM [rising, partial curve]	–

From PubChem BioAssay AID2685 (National Center for Advancing Translational Sciences (NCATS), 2010)
